{"source": "PubChem BioAssay AID1296", "about": "(Columbia University Molecular Screening Center, 2008)", "note": "The campaign covered roughly 130,000 compounds. About 1,000 (0.77%) were called active. The shares of active, inactive and inconclusive entries below differ from those in the screen.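 How the source made its calls: active means activation at 2 µM above a set limit, confirmed on inspection of the cell images; inconclusive means above the set limit but not confirmed on image inspection; inactive means the rest.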", "data": [{"test": "activators of insulin promoter-driven GFP, primary screen, imaging, TRM-6 cells, eGFP reporter, cell count (AID 1296);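 further: share of cells whose green reporter signal exceeds an intensity cutoff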", "details": "at 2 µM, hits give high values, plate-scaled: unstimulated 0, stimulated control 100", "how_it_was_run": "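Test system: human fetal islet-derived TRM-6 cells with tamoxifen-inducible insulin promoter–eGFP reporter. Compound dosing: 2 µM final, single concentration. Incubation: tamoxifen pre-incubation 15 h overnight, then compound exposure 48 h at 37 °C. Signal: fixed-cell fluorescence microscopy, eGFP plus Hoechst.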", "values": [{"smiles": "O=C(NCCCn1ccnc1)c1cn(-c2ccccc2)nc1-c1ccccc1", "activation": "inconclusive: 100%"}, {"smiles": "COc1ccc(COn2c(=O)c(C)[n+]([O-])c3ccccc32)cc1OC", "activation": "active: 86.5%"}, {"smiles": "O=C(ONC1=NCCCCC1)c1c(F)cccc1F", "activation": "inconclusive: 76.9%"}, {"smiles": "COC(=O)CSc1nc2cc(C)cc(C)c2cc1C#N", "activation": "inconclusive: 129%"}, {"smiles": "C=CCn1c(N)cc(=O)nc1SC(C)C(=O)Nc1cccc2ccccc12", "note": "(stereo unspecified)", "activation": "inconclusive: 569%"}, {"smiles": "COC(=O)c1cn(NC(=O)c2ccc([N+](=O)[O-])c(C)c2)c(=O)c2ccccc12", "activation": "active: 320%"}, {"smiles": "COc1ccc(CNC(=O)c2ccccc2SC)cc1", "activation": "inactive: 259%"}, {"smiles": "CCn1c(SCC(=O)c2cc(OC)ccc2OC)nnc1C1CC1", "activation": "inactive: 7.69%"}, {"smiles": "COc1ccc(C(=O)CSc2nnc(-c3ccco3)c(-c3ccco3)n2)cc1", "activation": "inconclusive: 200% [cytotoxic]"}, {"smiles": "CCCCNC(=O)C1CC(c2ccccc2[N+](=O)[O-])=NO1", "note": "(stereo unspecified)", "activation": "active: 161%"}, {"smiles": "O=C1C=CC(=O)C(C2=C3C(=O)N(CCc4ccccc4)CC(=O)N3CCC2)=C1", "activation": "inconclusive: 279% [cytotoxic]"}, {"smiles": "C=CCN(c1ccc(C(=O)NC(C)C)cc1)S(C)(=O)=O", "activation": "inconclusive: 543%"}, {"smiles": "O=C(NCCCN1CCN(c2ccccc2F)CC1)C1CCN(S(=O)(=O)c2cccs2)CC1", "activation": "inconclusive: 183%"}, {"smiles": "CCCNC(=O)C12CCC(C)(C(=O)C1Br)C2(C)C", "note": "(stereo unspecified)", "activation": "inactive: -5.88%"}, {"smiles": "CCCCCCCCCCn1c2c(c(=N)c3c1CCC3)CCC2", "activation": "inconclusive: 86%"}, {"smiles": "CC1=CC(=O)C=C(C)C1=NOS(=O)(=O)c1ccccc1", "activation": "inconclusive: 614%"}, {"smiles": "CC(C(=O)O)N1C(=O)c2cccc3cccc1c23", "note": "(stereo unspecified)", "activation": "inconclusive: 90.9%"}, {"smiles": "COc1ccc(NC(=O)C2C3C=CC4(CN(Cc5cccnc5)C(=O)C24)O3)c(OC)c1", "note": "(stereo unspecified)", "activation": "inactive: 0%"}, {"smiles": "O=C(COC(=O)CNS(=O)(=O)/C=C/c1ccccc1)Nc1cc(S(=O)(=O)N2CCCCC2)ccc1Cl", "activation": "inconclusive: 453% [cytotoxic]"}, {"smiles": "Cc1cccc(C)c1OCc1nnc(SCC(=O)NCc2ccccc2)o1", "activation": "inconclusive: 75.7%"}, {"smiles": "CSc1ncnc2sc(C)c(C)c12", "activation": "inconclusive: 439% [cytotoxic]"}, {"smiles": "O=C(c1ccccc1[N+](=O)[O-])N1CCCN(C(=O)c2ccccc2[N+](=O)[O-])CC1", "activation": "inactive: 0%"}, {"smiles": "Cn1c(=O)n(CCc2ccccc2)c(=O)c2c1nc1n2CCCN1c1ccccc1", "activation": "inconclusive: 196%"}, {"smiles": "CCC1=Nc2cc(C(=O)NCCCOC)ccc2Sc2ccccc21", "activation": "inconclusive: 93.5% [cytotoxic]"}, {"smiles": "COc1ccc2oc(=N)c(-c3nnc4n3CCCCC4)cc2c1", "activation": "inconclusive: 450%"}, {"smiles": "O=C(O)CCc1ccc(-c2cccs2)n1NC(=O)c1cccs1", "activation": "inconclusive: 614%"}, {"smiles": "CCOC(=O)CNC(=O)C(CC(C)C)NC(=O)C1CCCCC1", "note": "(stereo unspecified)", "activation": "inactive: 2.78%"}, {"smiles": "Cc1ccccc1NC(=S)NCCc1ccc(S(N)(=O)=O)cc1", "activation": "inactive: 1.59%"}, {"smiles": "Nc1c2c(nc3sc4c(c13)CCCC4)CCCCCC2", "activation": "inconclusive: 340%"}, {"smiles": "CCN1/C(=C/c2ccc3ccccc3[n+]2CC)C=Cc2ccccc21", "activation": "inconclusive: 223% [cytotoxic]"}, {"smiles": "O=C(COc1ccc(Cl)cc1)NCc1nnc(SCC(=O)N2CCCC2)o1", "activation": "inactive: 6.67%"}, {"smiles": "CCOC(=O)c1cc2sc(C)cc2n1CC(=O)N(CC)CC", "activation": "inactive: 8.11%"}, {"smiles": "Cc1cc(C)n(C(=O)CNC(=O)C2COc3ccccc3O2)n1", "note": "(stereo unspecified)", "activation": "inactive: 0%"}, {"smiles": "CCC1=NN(C(=O)c2cccnc2)C(O)(C(F)(F)F)C1", "note": "(stereo unspecified)", "activation": "inactive: -7.41%"}, {"smiles": "CCn1cc([N+](=O)[O-])c(C(=O)Nc2nc3ccc(OC)cc3s2)n1", "activation": "inactive: 0%"}, {"smiles": "COc1ccc(S(=O)(=O)NCc2cc(-c3ccccc3Cl)no2)cc1", "activation": "inconclusive: 164%"}, {"smiles": "N#C/C(=C\\c1ccc(N2CCOCC2)o1)C(=O)Nc1ccc(O)cc1", "activation": "inconclusive: 400%"}, {"smiles": "C=CCNC(=O)COc1ccc(N(C)S(=O)(=O)c2ccc(NC(C)=O)cc2)cc1", "activation": "inactive: 5.56%"}, {"smiles": "CN1CCN(c2ccccc2NC(=O)c2cc3ccccc3o2)CC1", "activation": "inconclusive: 88.6%"}, {"smiles": "CCn1ncc(C(=O)Nc2ccccc2C)c1C", "activation": "inconclusive: 367%"}, {"smiles": "Cc1[nH]c2ccccc2c1Cc1n[nH]c(=S)n1C", "activation": "inconclusive: 419%"}, {"smiles": "CC(Sc1n[nH]c(N)n1)c1nc2scc(-c3cccs3)c2c(=O)[nH]1", "note": "(stereo unspecified)", "activation": "inconclusive: 400%"}, {"smiles": "N#Cc1c(C(F)(F)F)cc(-c2ccccc2)nc1SCC(=O)Nc1sc2c(c1C#N)CCC2", "activation": "inconclusive: 143%"}, {"smiles": "Cc1ccc2c(c1)C1OCCC1C1N2C(=O)C2C(C(=O)O)C3C=CC21O3", "note": "(stereo unspecified)", "activation": "inconclusive: 78.1%"}, {"smiles": "CCCCC/C(=N\\NC(=O)CCC(=O)NCc1ccccc1)c1ccccc1", "activation": "active: 371%"}, {"smiles": "O=C1C2C3CCC(C3)C2C(=O)N1CNc1ccc(F)cc1", "note": "(stereo unspecified)", "activation": "inconclusive: 517%"}, {"smiles": "O=C(Oc1cc2oc(=O)c3c(c2cc1Cl)CCCC3)c1cccs1", "activation": "inconclusive: 264% [cytotoxic]"}, {"smiles": "CCc1ccc(S(=O)(=O)/N=C2\\C=CC(=O)c3ccccc32)cc1", "activation": "active: 327%"}, {"smiles": "CC1CC(C)CN(CCCNC(=O)CCNC(=O)Cn2ccc3ccccc3c2=O)C1", "note": "(stereo unspecified)", "activation": "inactive: -5.71%"}, {"smiles": "CC(C)C(=O)NC(NC(=S)NC1CCS(=O)(=O)C1)C(Cl)(Cl)Cl", "note": "(stereo unspecified)", "activation": "inconclusive: 429%"}, {"smiles": "Cc1nn(-c2ccccc2)c(Cl)c1CN(C(=O)CCl)c1cccc2ccccc12", "activation": "inconclusive: 614% [cytotoxic]"}, {"smiles": "Cn1nnnc1SCSc1nnnn1C", "activation": "active: 625%"}, {"smiles": "CCCCCCCCCn1c2c(c(=N)c3c1CCC3)CCCC2", "activation": "inconclusive: 300%"}, {"smiles": "CC(=O)Nc1ccc(C(=O)Nc2ccc(S(=O)(=O)NCC3CCCO3)cc2)cc1", "note": "(stereo unspecified)", "activation": "inactive: -6.06%"}, {"smiles": "COc1ccc(-n2nnc3c(SCC(=O)OCc4ccccc4)ncnc32)cc1", "activation": "inactive: 7.14%"}, {"smiles": "Cn1c(=O)oc2cc(S(=O)(=O)Nc3cccc4c3CCCC4)ccc21", "activation": "inactive: -3.23%"}, {"smiles": "COc1ccc(-c2nc(CSCC(=O)NC3CCCc4ccccc43)c(C)o2)cc1", "note": "(stereo unspecified)", "activation": "inactive: 392%"}, {"smiles": "CC1CC(C)CN(S(=O)(=O)c2ccc(NC(=O)C3COc4ccccc4O3)cc2)C1", "note": "(stereo unspecified)", "activation": "active: 925%"}, {"smiles": "C=CCN1C=CC(=C/C=C(/C#N)C(=O)OCC)C=C1", "activation": "active: 163%"}, {"smiles": "COc1ccc(C(=O)Nc2ccccc2C(=O)NCCN2CCOCC2)cc1", "activation": "inconclusive: 441%"}, {"smiles": "CC(C)NS(=O)(=O)c1ccc(OCC(=O)Nc2cccc(F)c2)cc1", "activation": "inconclusive: 488%"}, {"smiles": "Cc1cc(=O)[nH]c(SCC(=O)Nc2cccc(C(F)(F)F)c2)n1", "activation": "inconclusive: 493%"}, {"smiles": "COc1ccc(CNC2=CC(=O)CC(C)(C)C2)cc1", "activation": "inactive: 0%"}, {"smiles": "N#Cc1ccccc1Cn1cc(/C=N/Nc2ccc([N+](=O)[O-])cn2)c2ccccc21", "activation": "active: 400%"}, {"smiles": "Cc1cc2nnc(SCC(=O)OC(C)C)n2c2ccccc12", "activation": "inconclusive: 88.6%"}, {"smiles": "CN(C)C(CNC(=O)CSc1nnc(-c2ccco2)o1)c1ccccc1", "note": "(stereo unspecified)", "activation": "inactive: -60%"}, {"smiles": "COc1ccc(NC(=O)OC(CN2CCCCC2)C(F)(F)F)cc1", "note": "(stereo unspecified)", "activation": "inconclusive: 76%"}, {"smiles": "Cc1ccc(-c2nn(-c3ccccc3)cc2NC(=O)c2ccccc2)cc1", "activation": "inactive: -6.67%"}, {"smiles": "N#CC1=C(N)SC(N)=C(C#N)C1c1ccc(C(F)(F)F)cc1", "activation": "inconclusive: 113%"}, {"smiles": "CC[N+]1=C(C)C(C)(C)c2cc(C)ccc21", "activation": "active: 488%"}, {"smiles": "O=C1C=CC(=O)N1Nc1ccc(Br)cc1", "activation": "inactive: -3.45%"}, {"smiles": "C=C1C(=O)C=C2CN(C(=O)c3ccccc3)[C@@](Cc3ccc(F)cc3)(C(=O)OC)[C@@H]12", "activation": "inconclusive: 400% [cytotoxic]"}, {"smiles": "Cc1ccc2nc(-c3ccncc3)cc(-c3ccccc3)c2c1", "activation": "inconclusive: 233%"}, {"smiles": "O=C(Nc1cccc(S(=O)(=O)N2CCCCC2)c1)C1CC(=O)N(Cc2ccco2)C1", "note": "(stereo unspecified)", "activation": "inactive: 0%"}, {"smiles": "COc1ccccc1-c1ccc(NC2CCCC2)nn1", "activation": "inconclusive: 419%"}, {"smiles": "COc1cc([N+](=O)[O-])ccc1NC(=O)CSc1nc2ccccc2n1-c1ccccc1", "activation": "inactive: 6.9%"}, {"smiles": "CN1\\C(=C/C=C/C=C/C=[N+](C)C)C(C)(C)c2ccccc21", "activation": "active: 567%"}, {"smiles": "CCN(CC)c1ccc(/C=C/C(=O)C2C(=O)C=C(C)OC2=O)cc1", "note": "(stereo unspecified)", "activation": "active: 809% [fluoresces]"}, {"smiles": "COCC(C)n1c(C)cc(C(=O)CN2C(=O)NC(Cc3c[nH]c4ccccc34)C2=O)c1C", "note": "(stereo unspecified)", "activation": "inactive: 7.69%"}, {"smiles": "COc1ccc(CC(=O)n2nc(-c3ccccc3)nc2NCc2ccco2)cc1", "activation": "active: 642%"}, {"smiles": "CCOC(=O)C1=C(CSc2nc(-c3ccccc3)ccc2C#N)OC(N)=C(C#N)C1c1ccccc1", "note": "(stereo unspecified)", "activation": "inconclusive: 169%"}, {"smiles": "Cc1cc(=O)[nH]c2c(N=Nc3ccc(O)cc3)c(N)nn12", "activation": "active: 383%"}, {"smiles": "CCc1cccc(NC(=O)C2CCCN(S(=O)(=O)c3c(C)[nH]c(=O)[nH]c3=O)C2)c1", "note": "(stereo unspecified)", "activation": "active: 82.8%"}, {"smiles": "Cc1cc(SCC(=O)N(C)C2CCS(=O)(=O)C2)nc2c(C)cccc12", "note": "(stereo unspecified)", "activation": "inactive: -4.76%"}, {"smiles": "O=S(=O)(NC1CCCCC1NS(=O)(=O)c1ccc(F)cc1)c1ccc(F)cc1", "note": "(stereo unspecified)", "activation": "active: 513%"}, {"smiles": "COc1ccc(C(=O)c2oc3ccccc3c2N)cc1", "activation": "inactive: 306%"}, {"smiles": "Brc1ccc(C=Nc2ccc3c(c2)OCCOCCOCCO3)s1", "activation": "inconclusive: 306%"}, {"smiles": "CC1CC(C)CN(CCOc2ccccc2-c2ccccc2)C1", "note": "(stereo unspecified)", "activation": "active: 464%"}, {"smiles": "Cc1nnc(SCc2cc(=O)n3[nH]cnc3n2)s1", "activation": "inconclusive: 488%"}, {"smiles": "COc1ccc(-n2c(C(C)n3nc(C)c([N+](=O)[O-])c3C)n[nH]c2=S)cc1", "note": "(stereo unspecified)", "activation": "active: 515%"}, {"smiles": "CCOc1ccc2cc(/C=C/C(=O)c3ccco3)c(Cl)nc2c1", "activation": "inconclusive: 119%"}]}]}
